Results from the supplement of paper PMC6411743.
± gives the standard deviation of the averaged measurements. The list shows a part of the results.

Columns and labels:
Experiment in all cases: NP40-soluble protein abundance relative to vehicle (solubility fold change) (ratio); higher = more soluble protein in presence of GTP
[1] = molecular target: T1, UniProt Q14697 and related entries
T1 sequence (whole entry): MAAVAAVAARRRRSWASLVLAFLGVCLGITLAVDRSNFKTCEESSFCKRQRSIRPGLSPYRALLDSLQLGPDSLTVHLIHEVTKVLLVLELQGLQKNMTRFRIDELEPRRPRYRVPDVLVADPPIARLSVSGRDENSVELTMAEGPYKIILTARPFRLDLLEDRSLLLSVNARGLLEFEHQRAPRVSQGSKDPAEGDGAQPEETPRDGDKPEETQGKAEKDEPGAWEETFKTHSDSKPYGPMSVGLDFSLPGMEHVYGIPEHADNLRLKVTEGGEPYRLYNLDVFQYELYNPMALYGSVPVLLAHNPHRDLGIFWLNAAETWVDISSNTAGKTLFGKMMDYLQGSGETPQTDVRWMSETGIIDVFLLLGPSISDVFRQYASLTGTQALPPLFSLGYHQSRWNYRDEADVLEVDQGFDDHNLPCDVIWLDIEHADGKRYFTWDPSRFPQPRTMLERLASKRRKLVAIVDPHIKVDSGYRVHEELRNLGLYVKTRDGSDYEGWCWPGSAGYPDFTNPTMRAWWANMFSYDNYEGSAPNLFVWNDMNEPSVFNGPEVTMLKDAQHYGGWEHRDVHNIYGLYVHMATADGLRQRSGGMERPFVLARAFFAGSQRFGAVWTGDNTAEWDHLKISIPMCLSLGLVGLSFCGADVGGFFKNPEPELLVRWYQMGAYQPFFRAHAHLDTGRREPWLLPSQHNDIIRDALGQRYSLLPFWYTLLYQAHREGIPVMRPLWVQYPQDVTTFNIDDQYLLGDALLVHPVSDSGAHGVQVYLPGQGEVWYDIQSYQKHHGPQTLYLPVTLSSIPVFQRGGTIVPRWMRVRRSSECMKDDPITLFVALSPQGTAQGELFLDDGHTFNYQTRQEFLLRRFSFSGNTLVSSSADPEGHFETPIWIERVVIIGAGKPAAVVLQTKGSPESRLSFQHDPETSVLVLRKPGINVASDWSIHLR
Outline: (§1)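 Eight concentrations, 0.1 to 10 mM, were tested on Jurkat crude lysate for 10 min at room temperature and then 3 min at 37 °C, in three independent experiments. The lysate was solubilised with 0.8% NP40 and benzonase, ultracentrifuged, and the supernatant TMT-labelled for LC-MS/MS. Each value is the fold change against the detergent-processed vehicle in its own replicate, from vsn-normalised intensities.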

[2] = molecular target: T2, UniProt Q15398 and related entries
T2 sequence (whole entry): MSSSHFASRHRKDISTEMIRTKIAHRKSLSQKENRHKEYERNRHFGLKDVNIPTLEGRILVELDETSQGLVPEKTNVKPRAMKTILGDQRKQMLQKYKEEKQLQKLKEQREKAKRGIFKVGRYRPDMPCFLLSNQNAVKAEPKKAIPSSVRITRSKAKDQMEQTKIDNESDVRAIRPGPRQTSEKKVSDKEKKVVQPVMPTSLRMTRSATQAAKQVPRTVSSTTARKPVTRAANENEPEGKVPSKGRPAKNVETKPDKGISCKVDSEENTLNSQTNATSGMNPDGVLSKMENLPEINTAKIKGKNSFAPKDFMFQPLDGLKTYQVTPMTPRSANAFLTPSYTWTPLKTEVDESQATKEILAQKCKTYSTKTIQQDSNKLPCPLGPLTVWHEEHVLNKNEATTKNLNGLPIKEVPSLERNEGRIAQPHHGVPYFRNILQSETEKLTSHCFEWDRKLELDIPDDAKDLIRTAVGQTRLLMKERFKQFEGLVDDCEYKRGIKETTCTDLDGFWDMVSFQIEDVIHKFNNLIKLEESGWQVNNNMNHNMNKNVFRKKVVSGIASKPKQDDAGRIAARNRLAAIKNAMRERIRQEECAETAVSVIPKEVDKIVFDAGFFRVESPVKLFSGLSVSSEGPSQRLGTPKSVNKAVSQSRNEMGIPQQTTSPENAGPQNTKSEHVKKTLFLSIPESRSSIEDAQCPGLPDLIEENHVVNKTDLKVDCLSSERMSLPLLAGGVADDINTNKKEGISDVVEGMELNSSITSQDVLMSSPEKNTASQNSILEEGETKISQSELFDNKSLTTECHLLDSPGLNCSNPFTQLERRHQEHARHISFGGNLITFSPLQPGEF
Outline: as §1

[3] = molecular target: T3, UniProt Q15723 and related entries
T3 sequence (whole entry): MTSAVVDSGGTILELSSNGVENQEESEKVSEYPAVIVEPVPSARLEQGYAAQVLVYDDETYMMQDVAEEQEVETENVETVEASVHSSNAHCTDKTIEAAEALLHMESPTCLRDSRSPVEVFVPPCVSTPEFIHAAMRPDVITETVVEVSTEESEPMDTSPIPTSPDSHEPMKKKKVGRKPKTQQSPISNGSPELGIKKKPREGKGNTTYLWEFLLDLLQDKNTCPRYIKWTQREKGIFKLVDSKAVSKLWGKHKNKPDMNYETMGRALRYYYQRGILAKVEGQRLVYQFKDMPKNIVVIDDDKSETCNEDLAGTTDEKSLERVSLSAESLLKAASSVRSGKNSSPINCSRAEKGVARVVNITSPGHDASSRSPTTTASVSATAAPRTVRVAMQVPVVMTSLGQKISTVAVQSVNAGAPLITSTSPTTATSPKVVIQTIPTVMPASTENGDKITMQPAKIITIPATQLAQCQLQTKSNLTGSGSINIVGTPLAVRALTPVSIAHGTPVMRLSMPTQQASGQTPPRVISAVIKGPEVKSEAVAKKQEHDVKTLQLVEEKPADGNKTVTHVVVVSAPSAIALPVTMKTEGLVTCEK
Outline: as §1

[4] = molecular target: T4, UniProt Q15813 and related entries
T4 sequence (whole entry): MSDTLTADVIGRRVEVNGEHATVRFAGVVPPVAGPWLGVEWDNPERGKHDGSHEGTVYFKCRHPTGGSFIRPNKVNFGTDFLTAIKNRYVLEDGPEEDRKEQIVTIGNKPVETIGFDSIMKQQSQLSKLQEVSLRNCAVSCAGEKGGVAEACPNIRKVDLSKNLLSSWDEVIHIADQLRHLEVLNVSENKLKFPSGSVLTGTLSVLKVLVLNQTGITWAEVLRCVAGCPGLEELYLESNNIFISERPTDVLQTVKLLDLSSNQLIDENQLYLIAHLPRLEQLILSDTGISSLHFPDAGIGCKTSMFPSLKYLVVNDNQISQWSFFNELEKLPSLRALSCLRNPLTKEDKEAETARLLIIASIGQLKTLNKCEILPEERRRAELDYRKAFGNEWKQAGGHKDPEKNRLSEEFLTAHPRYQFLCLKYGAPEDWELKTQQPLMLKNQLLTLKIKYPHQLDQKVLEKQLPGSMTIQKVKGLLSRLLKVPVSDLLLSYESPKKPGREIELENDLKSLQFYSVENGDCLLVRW
Outline: as §1

[5] = molecular target: T5, UniProt Q16134 and related entries
T5 sequence (whole entry): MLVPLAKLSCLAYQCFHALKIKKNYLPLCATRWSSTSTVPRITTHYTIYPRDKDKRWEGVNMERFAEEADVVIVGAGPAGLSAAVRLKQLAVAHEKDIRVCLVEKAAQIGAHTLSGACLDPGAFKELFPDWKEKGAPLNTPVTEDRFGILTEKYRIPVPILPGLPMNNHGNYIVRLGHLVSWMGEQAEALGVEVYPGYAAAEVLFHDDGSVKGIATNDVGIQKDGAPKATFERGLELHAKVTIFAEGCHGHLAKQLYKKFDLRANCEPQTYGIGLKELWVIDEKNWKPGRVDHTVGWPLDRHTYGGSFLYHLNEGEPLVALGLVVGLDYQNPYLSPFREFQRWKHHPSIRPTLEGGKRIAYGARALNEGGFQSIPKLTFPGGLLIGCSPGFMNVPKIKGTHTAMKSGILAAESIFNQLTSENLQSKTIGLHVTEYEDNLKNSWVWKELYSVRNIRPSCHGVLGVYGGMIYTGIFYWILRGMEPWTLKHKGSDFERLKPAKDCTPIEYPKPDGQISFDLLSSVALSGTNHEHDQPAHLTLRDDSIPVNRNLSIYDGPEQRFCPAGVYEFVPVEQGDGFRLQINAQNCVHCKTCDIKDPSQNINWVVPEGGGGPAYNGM
Outline: as §1

[6] = molecular target: T6, UniProt Q16514-2|Q16514
T6 sequence (whole entry): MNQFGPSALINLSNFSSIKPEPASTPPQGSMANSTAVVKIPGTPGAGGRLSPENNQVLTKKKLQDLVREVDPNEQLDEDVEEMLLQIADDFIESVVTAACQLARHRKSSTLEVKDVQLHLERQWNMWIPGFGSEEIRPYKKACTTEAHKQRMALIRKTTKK
Outline: as §1

[7] = molecular target: T7, UniProt Q5T1V6 and related entries
T7 sequence (whole entry): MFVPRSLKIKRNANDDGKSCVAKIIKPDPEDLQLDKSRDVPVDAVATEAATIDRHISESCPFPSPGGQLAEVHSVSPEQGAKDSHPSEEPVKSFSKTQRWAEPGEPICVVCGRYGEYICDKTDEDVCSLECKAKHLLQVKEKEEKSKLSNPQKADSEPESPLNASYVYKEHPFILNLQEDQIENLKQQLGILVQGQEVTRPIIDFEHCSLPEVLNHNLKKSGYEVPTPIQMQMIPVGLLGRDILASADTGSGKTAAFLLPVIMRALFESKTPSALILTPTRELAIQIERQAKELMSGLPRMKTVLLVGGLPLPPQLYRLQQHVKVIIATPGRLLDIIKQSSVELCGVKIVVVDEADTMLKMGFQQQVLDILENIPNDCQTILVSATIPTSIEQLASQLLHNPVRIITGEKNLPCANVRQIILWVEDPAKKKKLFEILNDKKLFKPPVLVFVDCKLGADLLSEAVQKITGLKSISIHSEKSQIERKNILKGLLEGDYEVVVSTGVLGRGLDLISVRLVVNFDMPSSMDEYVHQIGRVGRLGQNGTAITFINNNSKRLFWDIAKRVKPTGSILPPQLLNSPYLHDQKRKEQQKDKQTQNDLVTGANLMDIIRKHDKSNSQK
Outline: as §1

## Nc1nc2c(ncn2[C@@H]2O[C@H](COP(=O)(O)OP(=O)(O)OP(=O)(O)O)[C@@H](O)[C@H]2O)c(=O)[nH]1 [guanosine triphosphate]
[1]; concentration: 0.1mM
  NP40-soluble protein abundance: 1.03 ± 0.062
[1]; concentration: 0.5mM
  NP40-soluble protein abundance: 1.03 ± 0.069
[1]; concentration: 1mM
  NP40-soluble protein abundance: 0.897 ± 0.03
[1]; concentration: 2mM
  NP40-soluble protein abundance: 0.935 ± 0.081
[1]; concentration: 4mM
  NP40-soluble protein abundance: 0.921 ± 0.065
[1]; concentration: 6mM
  NP40-soluble protein abundance: 0.887 ± 0.044
[1]; concentration: 8mM
  NP40-soluble protein abundance: 0.843 ± 0.042
[1]; concentration: 10mM
  NP40-soluble protein abundance: 0.837 ± 0.064
[2]; concentration: 0.1mM
  NP40-soluble protein abundance: 1.02 ± 0.021
[2]; concentration: 0.5mM
  NP40-soluble protein abundance: 0.975 ± 0.026
[2]; concentration: 1mM
  NP40-soluble protein abundance: 0.997 ± 0.032
[2]; concentration: 2mM
  NP40-soluble protein abundance: 0.942 ± 0.022
[2]; concentration: 4mM
  NP40-soluble protein abundance: 0.986 ± 0.042
[2]; concentration: 6mM
  NP40-soluble protein abundance: 0.924 ± 0.032
[2]; concentration: 8mM
  NP40-soluble protein abundance: 0.99 ± 0.029
[2]; concentration: 10mM
  NP40-soluble protein abundance: 0.938 ± 0.032
[3]; concentration: 0.1mM
  NP40-soluble protein abundance: 1.03 ± 0.06
[3]; concentration: 0.5mM
  NP40-soluble protein abundance: 1.07 ± 0.092
[3]; concentration: 1mM
  NP40-soluble protein abundance: 1.09 ± 0.03
[3]; concentration: 2mM
  NP40-soluble protein abundance: 1.01 ± 0.024
[3]; concentration: 4mM
  NP40-soluble protein abundance: 1.01 ± 0.065
[3]; concentration: 6mM
  NP40-soluble protein abundance: 1.08 ± 0.059
[3]; concentration: 8mM
  NP40-soluble protein abundance: 1.066 ± 0.0098
[3]; concentration: 10mM
  NP40-soluble protein abundance: 1.01 ± 0.012
[4]; concentration: 0.1mM
  NP40-soluble protein abundance: 0.982 ± 0.018
[4]; concentration: 0.5mM
  NP40-soluble protein abundance: 0.993 ± 0.039
[4]; concentration: 1mM
  NP40-soluble protein abundance: 0.92 ± 0.052
[4]; concentration: 2mM
  NP40-soluble protein abundance: 0.914 ± 0.038
[4]; concentration: 4mM
  NP40-soluble protein abundance: 0.903 ± 0.022
[4]; concentration: 6mM
  NP40-soluble protein abundance: 0.886 ± 0.035
[4]; concentration: 8mM
  NP40-soluble protein abundance: 0.874 ± 0.058
[4]; concentration: 10mM
  NP40-soluble protein abundance: 0.858 ± 0.072
[5]; concentration: 0.1mM
  NP40-soluble protein abundance: 1.03 ± 0.04
[5]; concentration: 0.5mM
  NP40-soluble protein abundance: 1.022 ± 0.0076
[5]; concentration: 1mM
  NP40-soluble protein abundance: 0.9438 ± 0.006
[5]; concentration: 2mM
  NP40-soluble protein abundance: 0.944 ± 0.038
[5]; concentration: 4mM
  NP40-soluble protein abundance: 0.916 ± 0.033
[5]; concentration: 6mM
  NP40-soluble protein abundance: 0.923 ± 0.026
[5]; concentration: 8mM
  NP40-soluble protein abundance: 0.896 ± 0.036
[5]; concentration: 10mM
  NP40-soluble protein abundance: 0.865 ± 0.07
[6]; concentration: 0.1mM
  NP40-soluble protein abundance: 1.02 ± 0.031
[6]; concentration: 0.5mM
  NP40-soluble protein abundance: 1.08 ± 0.014
[6]; concentration: 1mM
  NP40-soluble protein abundance: 1.19 ± 0.1
[6]; concentration: 2mM
  NP40-soluble protein abundance: 1.19 ± 0.055
[6]; concentration: 4mM
  NP40-soluble protein abundance: 1.21 ± 0.073
[6]; concentration: 6mM
  NP40-soluble protein abundance: 1.21 ± 0.13
[6]; concentration: 8mM
  NP40-soluble protein abundance: 1.27 ± 0.16
[6]; concentration: 10mM
  NP40-soluble protein abundance: 1.37 ± 0.17
[7]; concentration: 0.1mM
  NP40-soluble protein abundance: 1.02 ± 0.05
[7]; concentration: 0.5mM
  NP40-soluble protein abundance: 1.03 ± 0.032
[7]; concentration: 1mM
  NP40-soluble protein abundance: 0.964 ± 0.05
[7]; concentration: 2mM
  NP40-soluble protein abundance: 0.985 ± 0.026
[7]; concentration: 4mM
  NP40-soluble protein abundance: 0.969 ± 0.043
[7]; concentration: 6mM
  NP40-soluble protein abundance: 0.959 ± 0.025
[7]; concentration: 8mM
  NP40-soluble protein abundance: 0.92 ± 0.057
[7]; concentration: 10mM
  NP40-soluble protein abundance: 0.901 ± 0.043
